Laboratory results: PubChem BioAssay AID504804 (Drosophila RNAi Screening Center, 2011)

- Test: 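dsRNAs that improve Kc cell survival under doxorubicin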 (primary screen)
- Cell system: Drosophila Kc cells
- Reagents: long dsRNA against Drosophila genes, 0.5 µg dsRNA per well
- Timing: 96 h (48 h knock-down, then 48 h drug)
- Challenge: doxorubicin 5 µg/ml for 48 h, added 48 h after dsRNA
- Measured: 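Luminescent ATP counts per replicate, not normalised, reflecting viable cells after 48 h dsRNA knock-down followed by 48 h of 5 µg/ml doxorubicin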
- Scale: raw ATP luminescence: higher = more viable cells, protection from doxorubicin
- Call rule: 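Active when both duplicate wells lie at least 2 SD above the plate mean and protection is confirmed by rescreening and independent dsRNAs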
The screen tested about 19,000 reagents; shown is an unselected part of those with a known target gene and a result. Over the whole deposit, 47 (0.25%) were called active. 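Signals are raw, not normalised; exact z-scores behind calls not deposited; actives needed confirmation, so some wells reaching 2 SD are inactive.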 The numbers tell different reagents against one gene apart. Names joined by + are all predicted targets of the reagent. No sequences are given here.

Gene	reagent	raw ATP luminescence, replicate 1	raw ATP luminescence, replicate 2	call
Nhe2 (GeneID 35376)	1	60247	58057	inactive
Nhe2 (GeneID 35376)	2	64710	50910	inactive
CG34348 (GeneID 32072)	1	3.18e5	3.09e5	inactive
CG34348 (GeneID 32072)	2	3.82e5	3.60e5	inactive
Zaf1 (GeneID 41394)	1	66510	67560	inactive
Rnmt (GeneID 34877)	1	75360	71787	inactive
vir (GeneID 47869)	1	54777	65293	inactive
Pph13 (GeneID 33239)	1	78383	46477	inactive
CG10646 (GeneID 39426)	1	1.39e5	1.34e5	inactive
Cox17 (GeneID 32439)	1	3.29e5	2.88e5	inactive
CG9458 (GeneID 41214)	1	55297	51603	inactive
AdoR (GeneID 43583)	1	34100	30450	inactive
CG13921 (GeneID 38222)	1	60017	47297	inactive
Hs6st (GeneID 42380)	1	28580	24360	inactive
Hs6st (GeneID 42380)	2	59730	64880	inactive
Hs6st (GeneID 42380)	3	63780	59640	inactive
Fbxo42 (GeneID 37532)	1	84420	67090	inactive
CG5614 (GeneID 41906)	1	1.10e5	56100	inactive
Noc3 (GeneID 40870)	1	43287	24237	inactive
Cpr57A + Obp57d	1	58670	74497	inactive
CG40485 (GeneID 3355165)	1	4.13e5	3.09e5	inactive
Cnep1r1 (GeneID 3355167)	1	4.06e5	3.04e5	inactive
CG12730 (GeneID 31466)	1	30420	34880	inactive
CG7966 (GeneID 41610)	1	45663	26620	inactive
CG7304 (GeneID 39713)	1	83373	63997	inactive
HemK2 + Snapin	1	98550	64050	inactive
CG8292 (GeneID 34125)	1	41257	86493	inactive
CG32075 (GeneID 326192)	1	75013	78850	inactive
CG13603 (GeneID 42838)	1	46293	50890	inactive
CG8155 (GeneID 36698)	1	91357	64123	inactive
Nplp1 (GeneID 38003)	1	64310	55123	inactive
Fcp1 (GeneID 37925)	1	53760	64920	inactive
Sem1 (GeneID 50428)	1	20220	20250	inactive
Or94b (GeneID 42712)	1	62690	53060	inactive
CG34007 (GeneID 3885610)	1	77830	73037	inactive
Camta (GeneID 35974)	1	37587	66093	inactive
Camta (GeneID 35974)	2	49233	76673	inactive
Camta (GeneID 35974)	3	63737	83847	inactive

A stretch of the results above:
Gene	reagent	raw ATP luminescence, replicate 1	raw ATP luminescence, replicate 2	call
Nhe2 (GeneID 35376)	2	64710	50910	inactive
CG34348 (GeneID 32072)	1	3.18e5	3.09e5	inactive
CG34348 (GeneID 32072)	2	3.82e5	3.60e5	inactive
Zaf1 (GeneID 41394)	1	66510	67560	inactive
Rnmt (GeneID 34877)	1	75360	71787	inactive
vir (GeneID 47869)	1	54777	65293	inactive
Pph13 (GeneID 33239)	1	78383	46477	inactive
CG10646 (GeneID 39426)	1	1.39e5	1.34e5	inactive
Cox17 (GeneID 32439)	1	3.29e5	2.88e5	inactive
CG9458 (GeneID 41214)	1	55297	51603	inactive
AdoR (GeneID 43583)	1	34100	30450	inactive
CG13921 (GeneID 38222)	1	60017	47297	inactive
Hs6st (GeneID 42380)	1	28580	24360	inactive

The listing continues:
Gene	reagent	raw ATP luminescence, replicate 1	raw ATP luminescence, replicate 2	call
Vps29 (GeneID 33295)	1	1.17e5	58640	inactive
app (GeneID 39399)	1	1.31e5	1.72e5	inactive
app (GeneID 39399)	2	68837	56410	inactive
app (GeneID 39399)	3	62727	65227	inactive
CG16865 (GeneID 34788)	1	70093	74580	inactive
CG32814 (GeneID 318223)	1	2.65e5	2.72e5	inactive
tun (GeneID 36743)	1	1.19e5	97417	inactive
tun (GeneID 36743)	2	59017	59653	inactive
CG7182 (GeneID 38944)	1	36203	44033	inactive
Nup153 (GeneID 32630)	1	1.34e5	1.03e5	inactive
CG13760 (GeneID 31237)	1	49530	50480	inactive
Pez (GeneID 33882)	1	25480	22993	inactive
Zip102B (GeneID 43786)	1	75070	53000	inactive
CG42397 (GeneID 8673976)	1	1.99e5	1.48e5	inactive
rdx (GeneID 41704)	1	35240	28140	inactive
rdx (GeneID 41704)	2	1.09e5	1.11e5	inactive
CG8701 (GeneID 35812)	1	71470	61157	inactive
Burs (GeneID 42560)	1	45640	50230	inactive
CG31459 (GeneID 318746)	1	2.20e5	1.77e5	inactive
CG17600 (GeneID 33141)	1	3.96e5	3.53e5	inactive
CG17600 (GeneID 33141)	2	3.44e5	2.94e5	inactive
TyrR (GeneID 42136)	1	28890	21210	inactive
COX3 (retired record) (GeneID 192471)	1	3.07e5	2.92e5	inactive
CG9514 (GeneID 32418)	1	3.27e5	3.01e5	inactive
CG9514 (GeneID 32418)	2	3.01e5	3.03e5	inactive
CG4743 (GeneID 43101)	1	54180	51750	inactive
CG7194 (GeneID 38933)	1	61430	69910	inactive
CG32055 (GeneID 39188)	1	32613	37810	inactive
CG42582 (retired record) (GeneID 8673986)	1	2.15e5	2.31e5	inactive
Cyp313a3 (GeneID 41488)	1	57117	50720	inactive
Dpm1 (GeneID 35240)	1	69670	63190	inactive
ome (GeneID 44297)	1	75077	73220	inactive
ome (GeneID 44297)	2	42790	37790	inactive
ome (GeneID 44297)	3	85240	59813	inactive
CG17618 (retired record) + CG45049	1	60740	61650	inactive
SPR (GeneID 31463)	1	2.67e5	2.60e5	inactive
SPR (GeneID 31463)	2	37500	42890	inactive
SPR (GeneID 31463)	3	32990	50990	inactive
Nmt (GeneID 38909)	1	54847	81930	inactive
Ada2a (GeneID 326128)	1	91950	76380	inactive
CG32023 (GeneID 317827)	1	1.94e5	1.85e5	inactive
CG4511 (GeneID 41305)	1	57840	47200	inactive
Fic (GeneID 33897)	1	80273	67513	inactive
CG17681 (GeneID 35086)	1	56287	64033	inactive
CG8892 (GeneID 33719)	1	96153	67587	inactive
CG4025 (GeneID 31177)	1	55370	59570	inactive
